Measured values published in paper PMC12269497, “Dimerization of the BAR domain–containing protein FAM92A modulates lipid binding and interaction with CBY1” (The Journal of Biological Chemistry, 2025).
These are yes or no findings as the source states them, for the method shown.

Legend:
[1] = biological target: MBP-His-tagged mouse CBY1 4E (L77E, L84E, L91E, L98E) (mouse) (UniProt Q9D1C2); assay: SEC-MALS; typically 200 μl at 70 μM injected; Superose 12 10/300 GL; 50 mM Tris pH 7.5, 1 mM DTT, 1 mM EDTA, 100 mM NaCl; both purified
[2] = biological target: Trx-His-tagged mouse CBY1 N-terminal region (amino acids 1-70) (mouse) (UniProt Q9D1C2); assay: as above

Which binding [1] does the source give for “MBP-His-tagged mouse CBY1 4E (L77E, L84E, L91E, L98E) (from UniProt Q9D1C2 1-127)” here?
Its binding is “no binding (tested: typically 70 μM injected)”.

B1: Trx-His-tagged mouse CBY1 N-terminal region (amino acids 1-70) (domain or fragment)
chain: MPLFGSIFSPKKTPPRKSASLSNLHSLDRSTRELELGLDYGTPTMNLAGQSLKFENGQWVADSVISGGVD
Which binding [2] does the source give for B1 here?
Its binding is “no binding (tested: typically 70 μM injected)”.
